# Assay results: the supplement of paper PMC10849652
# Amino acid sequences for entries named in this document (tags omitted). A change or cut given only in a name is not applied to a line headed by its entry.
# UniProt Q99613, whole entry, looked up: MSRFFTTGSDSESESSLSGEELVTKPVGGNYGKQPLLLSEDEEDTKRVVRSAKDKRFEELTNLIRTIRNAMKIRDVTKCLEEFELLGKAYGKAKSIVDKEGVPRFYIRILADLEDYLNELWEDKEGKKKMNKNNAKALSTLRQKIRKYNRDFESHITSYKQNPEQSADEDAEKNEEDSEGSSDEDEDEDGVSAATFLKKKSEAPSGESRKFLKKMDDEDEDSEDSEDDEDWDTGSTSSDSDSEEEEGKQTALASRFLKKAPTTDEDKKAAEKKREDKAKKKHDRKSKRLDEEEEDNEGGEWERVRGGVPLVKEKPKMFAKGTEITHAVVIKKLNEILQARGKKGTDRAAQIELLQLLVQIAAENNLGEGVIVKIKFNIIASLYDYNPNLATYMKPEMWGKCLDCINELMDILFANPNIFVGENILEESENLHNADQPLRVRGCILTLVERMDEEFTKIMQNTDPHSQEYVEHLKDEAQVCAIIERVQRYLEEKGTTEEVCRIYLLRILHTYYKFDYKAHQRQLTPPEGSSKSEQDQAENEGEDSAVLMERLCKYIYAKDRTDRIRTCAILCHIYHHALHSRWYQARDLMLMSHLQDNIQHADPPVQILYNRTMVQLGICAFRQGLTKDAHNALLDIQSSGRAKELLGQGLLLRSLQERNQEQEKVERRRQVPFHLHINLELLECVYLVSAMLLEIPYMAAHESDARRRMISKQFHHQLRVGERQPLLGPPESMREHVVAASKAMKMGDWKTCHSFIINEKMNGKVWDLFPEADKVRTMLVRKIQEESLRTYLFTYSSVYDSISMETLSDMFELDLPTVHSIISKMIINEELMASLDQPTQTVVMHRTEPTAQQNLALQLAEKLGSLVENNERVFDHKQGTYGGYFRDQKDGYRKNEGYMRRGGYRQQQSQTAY
# UniProt Q7Z2Z2: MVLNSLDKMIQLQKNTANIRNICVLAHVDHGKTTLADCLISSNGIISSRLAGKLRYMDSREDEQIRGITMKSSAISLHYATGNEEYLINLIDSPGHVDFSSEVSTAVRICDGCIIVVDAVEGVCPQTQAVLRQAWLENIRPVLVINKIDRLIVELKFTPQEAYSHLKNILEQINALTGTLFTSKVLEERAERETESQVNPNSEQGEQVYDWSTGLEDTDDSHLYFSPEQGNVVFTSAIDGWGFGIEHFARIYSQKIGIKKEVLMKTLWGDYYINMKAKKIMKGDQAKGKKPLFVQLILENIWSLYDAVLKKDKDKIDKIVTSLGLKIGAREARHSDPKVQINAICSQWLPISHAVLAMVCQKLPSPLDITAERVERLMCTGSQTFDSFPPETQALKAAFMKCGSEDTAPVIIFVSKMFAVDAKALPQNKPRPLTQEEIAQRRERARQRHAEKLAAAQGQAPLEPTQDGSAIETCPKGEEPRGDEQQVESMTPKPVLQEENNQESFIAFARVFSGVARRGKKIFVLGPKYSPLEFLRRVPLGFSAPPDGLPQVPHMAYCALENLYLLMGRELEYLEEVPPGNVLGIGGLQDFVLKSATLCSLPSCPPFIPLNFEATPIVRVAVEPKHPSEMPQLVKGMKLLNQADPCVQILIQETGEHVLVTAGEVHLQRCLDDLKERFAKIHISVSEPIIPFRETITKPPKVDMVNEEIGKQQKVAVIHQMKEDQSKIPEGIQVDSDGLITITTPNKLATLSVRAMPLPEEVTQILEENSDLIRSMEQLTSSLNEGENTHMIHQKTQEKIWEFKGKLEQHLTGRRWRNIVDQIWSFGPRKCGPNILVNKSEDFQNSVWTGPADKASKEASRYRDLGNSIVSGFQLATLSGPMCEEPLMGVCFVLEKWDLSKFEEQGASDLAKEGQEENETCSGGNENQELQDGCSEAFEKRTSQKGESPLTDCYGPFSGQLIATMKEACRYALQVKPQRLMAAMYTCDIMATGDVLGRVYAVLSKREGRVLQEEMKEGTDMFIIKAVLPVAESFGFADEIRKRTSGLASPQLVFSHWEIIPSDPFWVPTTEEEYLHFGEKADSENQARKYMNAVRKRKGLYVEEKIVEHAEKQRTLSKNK
# UniProt Q9H223: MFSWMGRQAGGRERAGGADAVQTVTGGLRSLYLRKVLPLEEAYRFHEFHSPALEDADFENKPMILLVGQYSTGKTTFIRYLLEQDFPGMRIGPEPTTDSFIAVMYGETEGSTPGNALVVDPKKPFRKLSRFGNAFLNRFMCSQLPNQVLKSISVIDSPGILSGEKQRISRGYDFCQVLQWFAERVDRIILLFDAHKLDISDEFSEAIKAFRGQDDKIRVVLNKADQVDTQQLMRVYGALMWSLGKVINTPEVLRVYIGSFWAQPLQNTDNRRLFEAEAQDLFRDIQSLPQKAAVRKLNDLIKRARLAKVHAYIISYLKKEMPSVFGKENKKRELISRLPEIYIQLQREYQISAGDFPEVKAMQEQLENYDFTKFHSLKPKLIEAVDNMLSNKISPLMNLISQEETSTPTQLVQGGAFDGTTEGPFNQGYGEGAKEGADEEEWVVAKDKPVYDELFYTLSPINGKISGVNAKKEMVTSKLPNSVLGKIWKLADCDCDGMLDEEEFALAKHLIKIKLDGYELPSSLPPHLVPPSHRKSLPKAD
# UniProt P60228, whole entry, looked up: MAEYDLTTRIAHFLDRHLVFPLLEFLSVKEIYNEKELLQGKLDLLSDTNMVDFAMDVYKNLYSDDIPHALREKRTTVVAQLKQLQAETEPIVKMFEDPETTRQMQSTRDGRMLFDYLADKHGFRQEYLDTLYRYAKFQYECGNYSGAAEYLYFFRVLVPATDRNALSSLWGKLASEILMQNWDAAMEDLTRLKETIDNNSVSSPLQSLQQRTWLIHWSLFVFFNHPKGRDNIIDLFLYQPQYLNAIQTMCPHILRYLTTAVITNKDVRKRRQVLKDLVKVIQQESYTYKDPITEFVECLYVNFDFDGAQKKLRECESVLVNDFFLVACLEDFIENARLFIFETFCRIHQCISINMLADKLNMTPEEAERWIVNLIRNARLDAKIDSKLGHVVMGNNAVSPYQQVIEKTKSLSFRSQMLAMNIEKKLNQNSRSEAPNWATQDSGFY
# UniProt P54852: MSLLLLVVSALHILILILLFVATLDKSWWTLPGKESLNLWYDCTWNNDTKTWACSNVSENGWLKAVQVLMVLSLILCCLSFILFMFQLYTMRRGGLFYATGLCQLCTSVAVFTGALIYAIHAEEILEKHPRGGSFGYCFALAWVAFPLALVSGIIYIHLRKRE
# UniProt Q13347, whole entry, looked up: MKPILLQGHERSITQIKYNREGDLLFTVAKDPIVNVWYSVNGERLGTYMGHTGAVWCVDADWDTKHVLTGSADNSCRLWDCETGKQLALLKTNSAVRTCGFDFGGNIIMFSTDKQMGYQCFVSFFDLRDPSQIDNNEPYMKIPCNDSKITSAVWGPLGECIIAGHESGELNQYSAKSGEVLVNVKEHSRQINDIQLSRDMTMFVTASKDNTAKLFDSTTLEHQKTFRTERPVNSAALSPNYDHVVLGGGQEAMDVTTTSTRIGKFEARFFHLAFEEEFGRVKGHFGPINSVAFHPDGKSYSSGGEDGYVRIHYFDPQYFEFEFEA
# UniProt O95834: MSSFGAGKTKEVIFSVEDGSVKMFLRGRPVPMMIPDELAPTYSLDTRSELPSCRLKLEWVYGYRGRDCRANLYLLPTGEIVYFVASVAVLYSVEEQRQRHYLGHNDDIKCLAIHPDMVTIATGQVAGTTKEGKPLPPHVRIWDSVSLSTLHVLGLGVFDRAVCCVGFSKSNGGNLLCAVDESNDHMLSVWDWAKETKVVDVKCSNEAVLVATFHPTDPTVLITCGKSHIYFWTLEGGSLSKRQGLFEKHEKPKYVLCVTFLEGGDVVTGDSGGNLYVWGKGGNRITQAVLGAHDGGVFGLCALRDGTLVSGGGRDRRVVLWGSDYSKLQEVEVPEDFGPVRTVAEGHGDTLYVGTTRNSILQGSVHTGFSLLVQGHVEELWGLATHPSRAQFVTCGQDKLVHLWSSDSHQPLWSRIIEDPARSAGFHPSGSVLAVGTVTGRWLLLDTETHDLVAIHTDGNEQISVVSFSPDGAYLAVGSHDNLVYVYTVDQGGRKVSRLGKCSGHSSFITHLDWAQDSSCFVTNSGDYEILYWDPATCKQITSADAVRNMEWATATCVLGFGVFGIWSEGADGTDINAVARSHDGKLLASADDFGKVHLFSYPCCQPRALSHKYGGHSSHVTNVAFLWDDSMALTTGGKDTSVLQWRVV
# UniProt Q96EB1: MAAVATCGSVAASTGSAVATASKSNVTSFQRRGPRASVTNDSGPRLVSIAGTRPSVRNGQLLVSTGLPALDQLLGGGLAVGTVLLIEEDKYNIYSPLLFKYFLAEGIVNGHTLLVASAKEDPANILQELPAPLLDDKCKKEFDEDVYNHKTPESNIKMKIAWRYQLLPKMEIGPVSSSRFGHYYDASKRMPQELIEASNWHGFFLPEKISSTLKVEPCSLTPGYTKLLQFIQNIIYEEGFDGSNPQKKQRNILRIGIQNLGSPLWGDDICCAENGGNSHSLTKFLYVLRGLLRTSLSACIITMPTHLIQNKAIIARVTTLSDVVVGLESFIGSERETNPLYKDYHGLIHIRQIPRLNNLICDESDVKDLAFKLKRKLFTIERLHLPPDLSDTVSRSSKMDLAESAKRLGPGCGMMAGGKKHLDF
# UniProt P57772: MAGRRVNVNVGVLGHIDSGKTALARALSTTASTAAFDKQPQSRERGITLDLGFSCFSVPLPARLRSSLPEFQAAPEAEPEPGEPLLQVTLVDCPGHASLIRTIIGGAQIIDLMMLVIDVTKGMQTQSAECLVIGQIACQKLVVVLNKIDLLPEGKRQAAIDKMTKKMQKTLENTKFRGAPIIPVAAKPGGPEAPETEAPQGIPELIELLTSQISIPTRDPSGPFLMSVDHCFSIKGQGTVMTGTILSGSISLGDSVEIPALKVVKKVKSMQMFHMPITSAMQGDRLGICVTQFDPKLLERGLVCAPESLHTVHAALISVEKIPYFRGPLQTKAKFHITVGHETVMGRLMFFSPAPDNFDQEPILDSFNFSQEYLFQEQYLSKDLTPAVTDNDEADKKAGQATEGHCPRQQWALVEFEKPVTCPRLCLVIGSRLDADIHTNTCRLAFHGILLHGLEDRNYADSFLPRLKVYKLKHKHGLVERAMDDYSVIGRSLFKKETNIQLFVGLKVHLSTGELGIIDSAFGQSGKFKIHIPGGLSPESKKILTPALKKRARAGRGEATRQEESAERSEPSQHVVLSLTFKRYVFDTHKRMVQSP
# UniProt O00303, whole entry, looked up: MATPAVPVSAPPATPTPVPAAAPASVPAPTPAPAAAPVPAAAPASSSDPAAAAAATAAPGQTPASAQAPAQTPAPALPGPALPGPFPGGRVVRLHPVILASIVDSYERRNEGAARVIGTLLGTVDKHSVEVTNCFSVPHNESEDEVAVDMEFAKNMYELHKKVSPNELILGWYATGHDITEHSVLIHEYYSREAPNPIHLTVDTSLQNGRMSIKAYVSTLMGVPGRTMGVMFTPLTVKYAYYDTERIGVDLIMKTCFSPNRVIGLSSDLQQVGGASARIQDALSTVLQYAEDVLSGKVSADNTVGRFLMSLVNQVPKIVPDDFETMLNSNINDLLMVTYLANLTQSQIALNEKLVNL
# UniProt P18146, whole entry, looked up: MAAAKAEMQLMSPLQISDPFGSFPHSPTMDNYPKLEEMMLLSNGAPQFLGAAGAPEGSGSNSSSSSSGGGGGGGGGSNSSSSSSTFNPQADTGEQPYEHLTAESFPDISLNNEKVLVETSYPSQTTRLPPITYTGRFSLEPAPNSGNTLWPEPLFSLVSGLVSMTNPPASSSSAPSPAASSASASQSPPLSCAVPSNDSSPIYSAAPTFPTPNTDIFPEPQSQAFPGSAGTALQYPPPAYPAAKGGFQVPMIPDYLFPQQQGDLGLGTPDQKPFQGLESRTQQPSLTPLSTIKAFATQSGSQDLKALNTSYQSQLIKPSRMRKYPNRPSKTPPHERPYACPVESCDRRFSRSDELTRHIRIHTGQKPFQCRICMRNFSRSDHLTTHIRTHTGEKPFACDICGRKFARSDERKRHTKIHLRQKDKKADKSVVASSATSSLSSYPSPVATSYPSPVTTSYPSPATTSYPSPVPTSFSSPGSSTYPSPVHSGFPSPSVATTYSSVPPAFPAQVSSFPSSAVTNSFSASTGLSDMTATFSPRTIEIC
# UniProt Q9NPA0: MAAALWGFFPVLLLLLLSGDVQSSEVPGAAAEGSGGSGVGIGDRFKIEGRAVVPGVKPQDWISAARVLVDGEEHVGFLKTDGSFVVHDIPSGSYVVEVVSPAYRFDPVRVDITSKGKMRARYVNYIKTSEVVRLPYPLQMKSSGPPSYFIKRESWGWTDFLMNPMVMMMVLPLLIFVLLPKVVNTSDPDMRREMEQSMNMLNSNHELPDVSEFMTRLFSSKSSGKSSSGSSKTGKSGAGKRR
# UniProt P63241: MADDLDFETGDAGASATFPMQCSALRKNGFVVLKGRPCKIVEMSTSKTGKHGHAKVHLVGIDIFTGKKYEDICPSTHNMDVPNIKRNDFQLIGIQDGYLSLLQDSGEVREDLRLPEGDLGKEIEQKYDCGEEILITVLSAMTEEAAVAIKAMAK
# UniProt Q13541: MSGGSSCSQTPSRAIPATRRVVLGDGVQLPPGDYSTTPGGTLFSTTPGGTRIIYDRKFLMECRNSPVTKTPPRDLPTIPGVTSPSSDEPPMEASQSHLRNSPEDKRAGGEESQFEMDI
# This is one part of the list.
# Key:
# Test in all cases: log2 fold change, soluble protein after heating vs DMSO (PISA); higher = thermal stabilisation; K562 cells, 10 uM, 30 min; active = over 0.2 and 3.5 SD of the protein, either way, in both replicates (recomputed)
# [1] = compound: C1=CC=C(C=C1)[C@H](COC2=CC3=C(C=C2)NC(=O)N3)NC(=O)C4=CC=CN(C4=O)CC5=CC(=C(C=C5)F)F
# Method in brief: (§1)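 For each measurement, 10 μM compound was applied for 30 min to K562 cells at 2×10^6 cells/mL. Aliquots were heated for 3 min across 48°C-58°C, pooled, and extracted in PBS with 0.5% NP-40 at 4°C; the supernatant after 21,000xg for 90 min was soluble protein. This was quantified by TMTpro 16plex LC-MS/MS with channel sums equalised, and thermal stability was reported relative to control samples from duplicates, on a log2 fold-change scale.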
# [2] = compound: CC1=C(SC2=C1C(=N[C@H](C3=NN=C(N32)C)CC(=O)N)C4=CC=C(C=C4)Cl)C
# Method in brief: as §1
# [3] = compound: CC1=C2C(=CC=C1)N=C(N(C2=O)C3=CC=CC=C3C)CN4C=NC5=C(N=CN=C54)N
# Method in brief: as §1
# [4] = compound: Cc1sc2c(c1C)C(c1ccc(Cl)cc1)=N[C@@H](CC(=O)OC(C)(C)C)c1nnc(C)n1-2
# Method in brief: as §1
# [5] = compound: c1ccc([C@@H]2C[C@H]2NC2CCNCC2)cc1
# Method in brief: as §1
Target,log2 fold change [1],log2 fold change [2],log2 fold change [3],log2 fold change [4],log2 fold change [5]
ELP5 isoform 4 (UniProt Q8TE02),inactive: 0.041,inactive: -0.028,inactive: 0.043,inactive: -0.012,inactive: 0.025
EIF6 (UniProt P56537),inactive: 0.011,inactive: -0.022,inactive: -0.049,inactive: 0.014,inactive: 0.023
EIF1AX (UniProt P47813),inactive: -0.046,inactive: -0.036,inactive: -0.014,inactive: 0.003,inactive: 0.008
EIF3H (UniProt O15372),inactive: -0.041,inactive: 0.01,inactive: 0.059,inactive: 0.036,inactive: 0.055
EIF4G2 (UniProt P78344),inactive: -0.096,inactive: -0.127,inactive: -0.036,inactive: 0.181,inactive: -0.025
EIF3C (UniProt Q99613),inactive: -0.075,inactive: -0.032,inactive: 0.01,inactive: 0.101,inactive: -0.01
ENTPD5 (UniProt O75356),inactive: 0.077,inactive: 0.04,inactive: 0,inactive: 0.017,inactive: 0.058
EIF2S2 (UniProt P20042),inactive: 0.018,inactive: -0.101,inactive: -0.119,inactive: 0.067,inactive: 0.043
EMC8 (UniProt O43402),inactive: 0.011,inactive: 0.061,inactive: 0.028,inactive: -0.029,inactive: 0.02
EIF3D (UniProt O15371),inactive: -0.053,inactive: -0.036,inactive: 0.036,inactive: 0.094,inactive: 0.008
EEF2 (UniProt P13639),inactive: -0.009,inactive: 0.018,inactive: -0.021,inactive: -0.006,inactive: 0.012
EIF4E2 (UniProt O60573),inactive: -0.043,inactive: -0.01,inactive: -0.007,inactive: -0.06,inactive: 0.055
EI24 (UniProt O14681),inactive: -0.009,inactive: 0.006,inactive: -0.039,inactive: -0.057,inactive: 0.003
EFL1 (UniProt Q7Z2Z2),inactive: -0.042,inactive: 0.051,inactive: 0.083,inactive: 0.008,inactive: -0.017
EFTUD2 (UniProt Q15029),inactive: 0.042,inactive: -0.001,inactive: -0.016,inactive: 0.009,inactive: 0.032
EHD4 (UniProt Q9H223),inactive: -0.01,inactive: 0.052,inactive: 0.037,inactive: -0.05,inactive: 0.007
EIF3E (UniProt P60228),inactive: -0.084,inactive: 0.017,inactive: -0.005,inactive: 0.104,inactive: -0.005
EMP3 (UniProt P54852),inactive: 0.035,inactive: -0.005,inactive: -0.001,inactive: -0.063,inactive: 0.033
EIF3I (UniProt Q13347),inactive: -0.039,inactive: 0.019,inactive: 0.021,inactive: 0.049,inactive: -0.021
EFHD2 (UniProt Q96C19),inactive: -0.006,inactive: 0.041,inactive: 0.051,inactive: -0.054,inactive: -0.039
EML2 isoform 3 (UniProt O95834),inactive: -0.061,inactive: 0.03,inactive: 0.081,inactive: -0.012,inactive: -0.048
EHMT2 (UniProt Q96KQ7),inactive: 0.037,inactive: 0.012,inactive: 0.025,inactive: 0.098,inactive: -0.023
EMC4 (UniProt Q5J8M3),inactive: -0.021,inactive: 0.047,inactive: -0.05,inactive: -0.038,inactive: -0.05
EML5 isoform 5 (UniProt Q05BV3),inactive: 0.014,inactive: -0.052,inactive: 0.049,inactive: 0.051,inactive: -0.033
ELOB (UniProt Q15370),inactive: -0.014,inactive: 0.156,inactive: 0.066,inactive: -0.116,inactive: 0.006

Target,log2 fold change [1],log2 fold change [2],log2 fold change [3],log2 fold change [4],log2 fold change [5]
EHMT1 (UniProt Q9H9B1),inactive: 0.09,inactive: 0.078,inactive: 0.03,inactive: 0.102,inactive: 0.034
ENOPH1 (UniProt Q9UHY7),inactive: -0.083,inactive: 0.011,inactive: 0.156,inactive: 0.02,inactive: -0.107
ELAC2 (UniProt Q9BQ52),inactive: -0.003,inactive: 0.025,inactive: 0.01,inactive: -0.025,inactive: 0.019
EIF4ENIF1 isoform 3 (UniProt Q9NRA8),inactive: -0.077,inactive: 0.018,inactive: -0.041,inactive: 0.029,inactive: -0.064
ELP4 (UniProt Q96EB1),inactive: 0.034,inactive: 0.128,inactive: -0.004,inactive: -0.018,inactive: 0.049
EEFSEC (UniProt P57772),inactive: 0.016,inactive: 0.007,inactive: 0.082,inactive: 0.185,inactive: -0.028
EIF3F (UniProt O00303),inactive: -0.033,inactive: 0.034,inactive: 0.081,inactive: 0,inactive: -0.027
ELP2 isoform 6 (UniProt Q6IA86),inactive: -0.047,inactive: 0.03,inactive: 0.029,inactive: -0.012,inactive: 0.001
EIF1AD (UniProt Q8N9N8),inactive: 0.013,inactive: 0.067,inactive: 0.068,inactive: 0.013,inactive: -0.034
EML4 (UniProt Q9HC35),inactive: -0.097,inactive: -0.015,inactive: -0.012,inactive: 0.064,inactive: -0.078
EGR1 (UniProt P18146),inactive: 0.034,inactive: 0.241,inactive: -0.097,inactive: 0.705,inactive: 0.07
EIF3M (UniProt Q7L2H7),inactive: -0.023,inactive: -0.024,inactive: -0.002,inactive: 0.041,inactive: -0.003
ENO1 (UniProt P06733),inactive: -0.024,inactive: 0.011,inactive: 0.013,inactive: 0.007,inactive: 0.002
EIF1 (UniProt P41567),inactive: 0.03,inactive: 0.031,inactive: 0.001,inactive: 0.037,inactive: 0.016
ELOC (UniProt Q15369),inactive: 0.024,inactive: 0.151,inactive: 0.132,inactive: -0.066,inactive: -0.07
EFCAB14 (UniProt O75071),inactive: 0.045,active: -0.293,inactive: 0.016,inactive: 0.018,inactive: 0.321
EEF1G isoform 2 (UniProt P26641),inactive: -0.068,inactive: 0.005,inactive: -0.049,inactive: -0.001,inactive: -0.006
EMC7 (UniProt Q9NPA0),inactive: -0.007,inactive: 0.062,inactive: 0.043,inactive: -0.007,inactive: -0.02
EIF5A isoform 2 (UniProt P63241),inactive: -0.016,inactive: 0.039,inactive: 0.046,inactive: -0.069,inactive: -0.017
EIF4EBP1 (UniProt Q13541),inactive: 0.037,inactive: 0.074,inactive: -0.112,inactive: -0.056,inactive: 0.023
EIF3G (UniProt K7ER90),inactive: 0.034,inactive: 0.026,inactive: 0.137,inactive: -0.117,inactive: 0.097
ELOVL5 isoform 2 (UniProt Q9NYP7),inactive: -0.056,inactive: 0.021,inactive: 0.016,inactive: -0.074,inactive: 0.033
EIF4B (UniProt P23588),inactive: -0.003,inactive: -0.013,inactive: 0.008,inactive: 0.006,inactive: 0.01
EEF1A1 (UniProt P68104),inactive: 0.112,inactive: 0.212,inactive: -0.097,inactive: 0.125,inactive: -0.471
EIF2AK4 (UniProt Q9P2K8),inactive: -0.037,inactive: 0.064,inactive: 0.02,inactive: 0.056,inactive: 0.046

# Single entries from the entries so far:
# log2 fold change [3] with EIF1 (UniProt P41567) is entered as inactive: 0.001
# log2 fold change [4] with EFL1 (UniProt Q7Z2Z2) is entered as inactive: 0.008
